Assay results taken from article PMC7455122.
No constants are given. Whether binding was seen depends on the method and setting. Binding seen in cells or lysates may run through a third protein. These calls come from enrichment with a bait or labelling near it, and not all partners need be listed.

Biological target: myc-tagged BioID2 fusion protein containing the C-terminus of PC1 (BioID2-CT1)
Experiment: proximity labelling; myc-BioID2-CT1 transfected, 50 uM biotin overnight, lysate on streptavidin Dynabeads 4 hours, immunoblot with ARHGAP antibodies (called BioID2 proximity ligation assay by the paper)

- binding: binds
B1: endogenous ARHGAP35 (protein, UniProt Q9NRY4 1-1499)
chain: MMMARKQDVRIPTYNISVVGLSGTEKEKGQCGIGKSCLCNRFVRPSADEFHLDHTSVLSTSDFGGRVVNNDHFLYWGEVSRSLEDCVECKMHIVEQTEFIDDQTFQPHRSTALQPYIKRAAATKLASAEKLMYFCTDQLGLEQDFEQKQMPDGKLLVDGFLLGIDVSRGMNRNFDDQLKFVSNLYNQLAKTKKPIVVVLTKCDEGVERYIRDAHTFALSKKNLQVVETSARSNVNVDLAFSTLVQLIDKSRGKTKIIPYFEALKQQSQQIATAKDKYEWLVSRIVKNHNENWLSVSRKMQASPEYQDYVYLEGTQKAKKLFLQHIHRLKHEHIERRRKLYLAALPLAFEALIPNLDEIDHLSCIKAKKLLETKPEFLKWFVVLEETPWDATSHIDNMENERIPFDLMDTVPAEQLYEAHLEKLRNERKRVEMRRAFKENLETSPFITPGKPWEEARSFIMNEDFYQWLEESVYMDIYGKHQKQIIDKAKEEFQELLLEYSELFYELELDAKPSKEKMGVIQDVLGEEQRFKALQKLQAERDALILKHIHFVYHPTKETCPSCPACVDAKIEHLISSRFIRPSDRNQKNSLSDPNIDRINLVILGKDGLARELANEIRALCTNDDKYVIDGKMYELSLRPIEGNVRLPVNSFQTPTFQPHGCLCLYNSKESLSYVVESIEKSRESTLGRRDNHLVHLPLTLILVNKRGDTSGETLHSLIQQGQQIASKLQCVFLDPASAGIGYGRNINEKQISQVLKGLLDSKRNLNLVSSTASIKDLADVDLRIVMCLMCGDPFSADDILFPVLQSQTCKSSHCGSNNSVLLELPIGLHKKRIELSVLSYHSSFSIRKSRLVHGYIVFYSAKRKASLAMLRAFLCEVQDIIPIQLVALTDGAVDVLDNDLSREQLTEGEEIAQEIDGRFTSIPCSQPQHKLEIFHPFFKDVVEKKNIIEATHMYDNAAEACSTTEEVFNSPRAGSPLCNSNLQDSEEDIEPSYSLFREDTSLPSLSKDHSKLSMELEGNDGLSFIMSNFESKLNNKVPPPVKPKPPVHFEITKGDLSYLDQGHRDGQRKSVSSSPWLPQDGFDPSDYAEPMDAVVKPRNEEENIYSVPHDSTQGKIITIRNINKAQSNGSGNGSDSEMDTSSLERGRKVSIVSKPVLYRTRCTRLGRFASYRTSFSVGSDDELGPIRKKEEDQASQGYKGDNAVIPYETDEDPRRRNILRSLRRNTKKPKPKPRPSITKATWESNYFGVPLTTVVTPEKPIPIFIERCIEYIEATGLSTEGIYRVSGNKSEMESLQRQFDQDHNLDLAEKDFTVNTVAGAMKSFFSELPDPLVPYNMQIDLVEAHKINDREQKLHALKEVLKKFPKENHEVFKYVISHLNKVSHNNKVNLMTSENLSICFWPTLMRPDFSTMDALTATRTYQTIIELFIQQCPFFFYNRPITEPPGARPSSPSAVASTVPFLTSTPVTSQPSPPQSPPPTPQSPMQPLLPSQLQAEHTL
